Measurements reported in patent publication US4443536A, “Nondiffusible photographic couplers and photographic elements and processes employing same” (Eastman Kodak Company, priority 1982, dated 1984).

Assay: Dye-forming efficiency and reactivity of coupler: slope of dye density vs developed silver without and with competing coupler citrazinic acid
Conditions: for Yc/Yo / Yo (slope dye density vs developed silver; efficiency of dye formation): developer D-2; for Yc (slope dye density vs developed silver; reactivity of coupler): developer D-2 + 1.5 g/L citrazinic acid (competing coupler); for Yo (slope dye density vs developed silver; efficiency of dye formation): absence of competing coupler
Description: For each of the couplers identified below, photographic elements were prepared as described above in connection with Examples 1-14. Four samples from each element were exposed as described above. One pair of the exposed elements was developed in developer D-2, described above, and the other pair was developed in this developer to which had been added 1.5 g/L of the soluble competing coupler citrazinic acid. The remaining processing for one element from each pair was stopping, bleaching, fixing and washing while for the second element from each pair the bleaching step was omitted so that the developed silver remained in the element. For those elements in which the silver remained, the amount of developed silver, in g/m^2, was determined by x-ray fluorescence analysis and plotted against exposure. For those elements from which the developed silver had been removed, dye density vs exposure curves were generated. From the plots for pairs of elements developed with the same developer composition there was plotted, for each exposure step, dye density vs developed silver. The slope of the line for the elements developed in the absence of a competing coupler (Yo in Table III, below) is a measure of the efficiency with which the coupler forms dye; the greater the slope the more efficient the coupler. The slope of the line for the elements developed in the presence of the competing coupler (Yc in Table III, below) is a measure of the reactivity of the coupler, the greater the slope, the more reactive the coupler.

Compound | Yc/Yo (coupler solvent CS-4) | Yc (slope dye density vs developed silver; reactivity of coupler) (coupler solvent CS-4) | Yo (slope dye density vs developed silver; efficiency of dye formation) (coupler solvent CS-4) | Yc/Yo (coupler solvent CS-2) | Yc (slope dye density vs developed silver; reactivity of coupler) (coupler solvent CS-2) | Yo (slope dye density vs developed silver; efficiency of dye formation) (coupler solvent CS-2)
CCCCCCCCCCC(Oc1ccc(C(C)(C)c2ccc(O)cc2)cc1)C(=O)Nc1ccc(CCCc2n[nH]c3cc(C)nn23)cc1 (stereo not drawn) [CC-10, reference compound] | 0.130 | 0.21 | 1.62 |  |  | 
CCC(Oc1ccc(C(C)(C)CC)cc1C(C)(C)CC)C(=O)Nc1ccc(Cl)c(NC2=NN(c3c(Cl)cc(Cl)cc3Cl)C(=O)C2)c1 (stereo not drawn) [CC-11, reference compound] |  |  |  | 0.337 | 1.50 | 4.50
CCCCCCCCCCC(Oc1ccc(S(=O)(=O)c2ccc(O)cc2)cc1)C(=O)Nc1ccc(CCCc2n[nH]c3cc(C)nn23)cc1 (stereo not drawn) [Coupler M-8] | 0.312 | 1.73 | 5.55 |  |  | 
CCCCCCCCCCC(Oc1ccc(S(=O)(=O)c2ccc(O)cc2)cc1)C(=O)Nc1ccc(Cl)c(NC2=NN(c3c(Cl)cc(Cl)cc3Cl)C(=O)C2)c1 (stereo not drawn) [Coupler M-28] |  |  |  | 0.738 | 4.65 | 6.30
